Results from one PubChem assay

Data taken from PubChem BioAssay AID1159506, deposited by NCATS (2015).

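Luminescence from an EWS-FLI1 target-promoter (NR0B1) reporter, set against a CMV-promoter reporter, two days after silencing single genes in TC32 Ewing sarcoma cells.
Each siRNA was applied at 20 nM.
A z-score of the log NR0B1-over-CMV signal, less the median of siRNAs with the same seed; more negative means a stronger specific loss of the NR0B1 reporter.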

The strongest results of the screen are mostly left out here.
Sequences are the guide (antisense) strand, without overhang.

| siRNA | target gene | seed-corrected z-score |
|---|---|---|
| `UCCAUAACAUGAUCCACCC` | NEIL3 | -0.132 |
| `AUAAUCAUAGGUUUCAUCG` | HNRNPK | 1.406 |
| `UCAGGACAAACACCUGGUC` | ARHGDIG | 0.2938 |
| `AUCGAAUAAGCAAUCUUGG` | FAM227B | 0.4633 |
| `UUUGUACUCAAAACAAUUC` | HIST1H3E | 0.769 |
| `AACUUGAUAUGAUAAGUUC` | CTNND1 | 0.06231 |
| `UUUUCUCCUACCAAGUCGC` | M6PR | 0.7494 |
| `UUCUGGAUUAGGAGAGACC` | BIN2 | -0.5424 |
| `UAUGGAACGGGUCACAGGG` | SLC18A3 | 0.4672 |
| `UCGCUUUACAAAACAGUCC` | BRI3 | 1.114 |
| `UUGCAAGUCCGUUAAAGGC` | ZNF536 | -0.3844 |
| `UGGUCACCAAGAUAGAUGG` | MUC3A | 0.05355 |
| `UCUUUCCACAGGGACGAGG` | NOS3 | -0.7543 |
| `UUAGGAUCUCGUCUAAGGG` | EMILIN3 | 0.1215 |
| `AGCAUUUCUGUGAUUGGUU` | BTF3L4P2 | -1.939 |
| `UUCCAGAUAUGUUUAGUCG` | ADGRA2 | -0.2059 |
| `UACCUCAUCUGCGAUCUGC` | PLEKHM1P1 | 0.2727 |
| `UUCAUUUGUCUCAUGCUCC` | SLC43A1 | 1.088 |
| `AUUGUAAUUGUUGGGCAGG` | FGF6 | 0.4393 |
| `UUUACAAGAUGGCUUGUCC` | NRG1 | 0.5163 |
| `UCAGGUACAACAGCGAGUU` | CPSF1 | -0.1379 |
| `UGUUUUAAUGUUCUCAUCC` | COQ3 | 0.1591 |
| `AAAGAGAUGCGUUUCUGCU` | OR6B3 | 0.9901 |
| `UCAGCUAACUUCCUAAGGC` | BTF3L4P2 | 1.001 |
| `AACUUCGUACAUGUGAGUG` | TIMM17B | -0.606 |
| `AUAUGCACCAUACUACUGU` | C17orf102 | -0.01289 |
| `AAACCCACAAGCGUAAAUG` | TMEM14EP | 0.5685 |
| `CACAUGACCCAGAACCAGG` | DEFB124 | -1.385 |
| `UGUCUGACAAAGCAUCAUC` | TRIB1 | -0.004683 |
| `AUUGGAAUAUUCCAGAGCC` | PPFIBP1 | 0.9028 |
| `UCUGGAUUGUCAACCAUCG` | NDUFS5 | 0.3899 |
| `UCUAUUUCCUGUCAGAUCC` | MBL2 | -0.2129 |
| `UACGUAAGAGUUAUGGUCC` | RBM26 | -0.4746 |
| `UAAUACCCAAAAUUCGACC` | CBLB | 0.3429 |
| `UCACUAAGCACUCAUCAUC` | TTC39B | -0.1402 |
| `CAUUGUUCUGGUUCGCAUC` | MBP | 0.6661 |
| `AGCCGUACUAGCAAACUGC` | DCAF4L1 | -0.4723 |
| `AAUGCUGUCAAUCUUCUCC` | STX17 | 0.206 |
| `UCUGUUGGAAUGGUCACUC` | DAG1 | -0.3789 |
| `UAGAGAUGGAAUUAGCACC` | LOC400870 | -0.8556 |
| `AAGGUUCGGAGUACAGUGG` | OR51I2 | -0.7148 |
| `AACAGGUCACUCUUUAUCC` | TMEM132C | -0.9213 |
| `UUCUCGAAAAUGCUCGCCC` | USP7 | -0.309 |
| `UUGAUUUCAGGCUUAUGUG` | F2 | -0.01102 |
| `AAAGGGCAAACAAUAGUAC` | OR6A2 | -0.3237 |
| `UUGUUGGCGGGUCCAGUAG` | CLDND2 | 0.08402 |
| `UAUAGCAUCAGGAACCUUC` | PHF12 | -0.6732 |
| `UCGUUAAACAGUUUCGGAC` | RNF213 | 0.004323 |
| `UUCGUGAGCACAGCAUAGG` | HLX | 0.02717 |
| `UUGGGAAUGACAUACAGUG` | PXYLP1 | 1.233 |
| `UUCUGGAUAUCAGGUCUGU` | MECR | -0.1258 |
| `UAUCAAUUAGCACUUUCCC` | SUB1P1 | 0.7082 |
| `AUAGUGCUUACUAGUCUCC` | KDM5B | -0.0171 |
| `AUCGUGAUCAGUAAGGUAG` | NLRP13 | 0.09514 |
| `UGUUUUACAAGAUUGGGAG` | EAF2 | -1.593 |
| `UUUGGGUCGAGAGUCCUUU` | AGR2 | -0.8969 |
| `CCCGUCUACAUUGCACAGC` | LYPD2 | 0.5558 |
| `UACUGCAAAAUACAUCACU` | OR7A10 | -0.0248 |
| `UACUUGACGGUUUCCGAUG` | EEF1AKMT1 | -0.7382 |
| `UCAGUUUUCUUCGAAAAGC` | CCDC59 | 0.9517 |
| `UUCUCUUUCCAAUAAUUGU` | TRIM51 | 0.01282 |
| `UCUGUGAAAAGGCAAUGAG` | UGT1A1 | 0.1936 |
| `UUCUGUACCAGAAGCUUAG` | CA14 | -0.4929 |
| `UUGAGUUCAACCCUCACAC` | EGLN1 | 0.07649 |
| `UUAAAGACGACAUCAAAUC` | PTGR1 | -0.3473 |
| `UACGUGGGACGUUCAAUGU` | TUBA3E | 0.2106 |
| `UUCCGUAUGUUGACGAUGG` | TRIT1 | -0.256 |
| `AGAAGACAGGUGUUGAAGG` | PRR21 | 0.7868 |
| `UCAUGAUAAAGUAACAUUC` | RAB40B | 0.6716 |
| `UUCUUGUAUCUUCCUGUCC` | ADGRF3 | 0.2283 |
| `UUCCGUUCUAUACUCAGUG` | PTPRJ | 0.003341 |
| `UUCCAUAUAGUCCAGCACC` | MOGAT2 | 0.5503 |
| `UCUGGAUGGUGUGAGAACC` | HLA-K | 1.422 |
| `AAUGUUCUCCAUGCGUUCC` | APEH | -0.6578 |
| `AGUGCUUUUAGUUCUCUUG` | MTL5 | -0.2662 |
| `UUAAUGAAGAAGUGUAGGG` | NEURL4 | 0.5658 |
| `UUCCAGUCAUGUCAAGUCC` | RORB | 0.324 |
| `AGAUGUAAAUGUCUCCACC` | CREB3L1 | 0.3823 |

For reference, 8 entries once more:

siRNA	target gene	seed-corrected z-score
UUGAUUUCAGGCUUAUGUG	F2	-0.01102
UUUGUACUCAAAACAAUUC	HIST1H3E	0.769
UUCUCUUUCCAAUAAUUGU	TRIM51	0.01282
AAUGCUGUCAAUCUUCUCC	STX17	0.206
AUAUGCACCAUACUACUGU	C17orf102	-0.01289
AUCGUGAUCAGUAAGGUAG	NLRP13	0.09514
UUCCGUAUGUUGACGAUGG	TRIT1	-0.256
UCUGGAUGGUGUGAGAACC	HLA-K	1.422